The values that follow come from US8603528B2, “Compositions and method for the reduction of post-operative pain” (ABYRX, Inc., priority 2004, dated 2013).

Molecules are shown by their SMILES.

This data set is described as follows: Evaluation of elution rates of analgesic from a 0.5 gm composition button in phosphate buffer, HPLC-UV. The class given is physicochemical. The procedure: An evaluation of elution rates was obtained by submitting the compositions under consideration to the following: […] The surface area exposed to the buffer is about 0.785 sq. cm. One cc aliquots of the buffer solution are taken over a three day period, every 2 hours during business hours of day one, then several times on each of days two and three. […] The presence of lidocaine in the supernatant over the three day period is evidence of the release of pain-relieving amounts of the analgesic. The same procedure was followed for measurement of the elution of bupivacaine free base and hydrochloride.

As to `CCN(CC)CC(=O)Nc1c(C)cccc1C` [lidocaine free base, lidocaine, reference compound], the “elution of free base relative to the acid addition salt” value is reported as “elutes faster than the acid addition salt”. Further, where the note is “in a free base/salt mixture”, the “elution of free base relative to the salt” value is “elutes more rapidly”.
